Data from the supplement of paper PMC12873370.
Values joined by “and” are separate entries in the source; they are usually repeats but may differ in a detail not shown here. Equal values may be shown once. This is one part of the list. Most values come without repeats; read them as rough.

How the values were obtained:
[1] = test system: MEPP (mouse ovarian epithelium Trp53/Pten KO); experiment: cell viability relative to untreated (fraction); higher = less growth inhibition; details: 5 µM; 3 days
[2] = test system: PREPP (mouse prostate epithelium Trp53/Pten KO); experiment: as above; details: 5 µM; 3 days

| SMILES | cell viability [1] | cell viability [2] |
| --- | --- | --- |
| CC(=O)[C@H]1CC[C@H]2[C@@H]3CC[C@H]4C[C@H](O)CC[C@]4(C)[C@H]3CC[C@]12C | 0.81 | 0.83 |
| CN1[C@@H]2CC[C@H]1C[C@@H](OC(=O)[C@H](CO)c1ccccc1)C2 | 1.29 | 0.865 |
| COC[C@@]12CC[C@H](OC)[C@]34C([C@H]([C@H](OC)[C@H]13)[C@]1(O)[C@H]3[C@@H](OC(=O)c5ccccc5)[C@](O)(C[C@H]34)[C@@H](OC)[C@@H]1O)N(C)C2 | 0.992 | 0.736 |
| N#C/C=C1/C=C[C@@H](O)[C@H](O)[C@H]1O[C@@H]1O[C@H](CO)[C@@H](O)[C@H](O)[C@H]1O | 1.02 | 1.01 |
| COC[C@]12CN(C)[C@@H]3[C@@H]4[C@H](OC)[C@H]1[C@@]3([C@@H](OC)C[C@H]2O)[C@@H]1C[C@@]2(O)[C@H](OC(=O)c3ccccc3)[C@@H]1[C@]4(OC(C)=O)[C@@H](O)[C@@H]2OC | 1.34 | 0.869 |
| O=C(O)CCCCCCCCCO | 0.86 | 1.24 |
| CC(C)=CCC[C@](C)(O)[C@H]1CC[C@]2(C)[C@@H]1[C@H](O)C[C@@H]1[C@@]3(C)CC[C@H](O[C@@H]4O[C@H](CO)[C@@H](O)[C@H](O)[C@H]4O)C(C)(C)[C@@H]3CC[C@]12C | 0.993 | 1.07 |
| COc1cc2c(c(OC)c1OC)-c1ccc(OC)c(=O)cc1[C@@H](NC(C)=O)CC2 | 0.673 | 0.707 |
| CC(=O)OC(C)(C)/C=C/C(=O)[C@](C)(O)[C@H]1[C@H](O)C[C@@]2(C)[C@@H]3CC=C4[C@H](C[C@H](O)C(=O)C4(C)C)[C@]3(C)C(=O)C[C@]12C | 0.912 and 0.651 | 0.902 and 0.614 |
| CN(CC(=O)O)C(=N)NP(=O)(O)O | 0.811 | 0.845 |
| O=C1CCCN1 | 0.837 | 0.931 |
| CCN1CC2(OC(=O)c3ccccc3NC(C)=O)CCC(OC)C34C1C(CC23)C1(O)CC(OC)C2CC4C1(O)C2OC (centres undefined) | 0.802 | 0.863 |
| CC1=C2C[C@H]3[C@@H](CC=C4C[C@@H](O)CC[C@@]43C)[C@@H]2CC[C@]12O[C@@H]1C[C@H](C)CN[C@H]1[C@H]2C | 0.991 | 0.963 |
| Nc1nc(N)nc(NC2CC2)n1 | 0.783 | 0.895 |
| CC(C)(C)[C@]1(O)CC2OC(=O)CC23C(=O)OC2OC(=O)[C@H](O)C231 (some centres undefined) | 1.14 | 0.889 |
| COc1ccc(C[C@H]2NC[C@H](O)[C@H]2OC(C)=O)cc1 | 0.351 | 0.672 |

| SMILES | cell viability [1] | cell viability [2] |
| --- | --- | --- |
| NCCP(=O)(O)O | 0.847 | 1.14 |
| CC[C@@]1(O)C(=O)OCc2c1cc1n(c2=O)Cc2cc3ccccc3nc2-1 | 0.64 | 0.495 |
| Oc1cc(O)cc(/C=C/c2ccc(O)cc2O)c1 | 0.893 | 0.826 |
| C=C1CC[C@H]2[C@@H](/C=C(\C)C(=O)[C@@]3(OC(C)=O)C[C@H](C)[C@H](OC(=O)c4ccccc4)[C@@H]3[C@H]1OC(C)=O)C2(C)C | 1.29 | 1.13 |
| COc1cccc(C=O)c1OC | 0.826 | 1.06 |
| CC1=C(C(=O)Nc2ccccc2)SCCO1 | 0.909 | 1.04 |
| C[C@]12CCC(=O)C=C1CC[C@@H]1[C@@H]2C(=O)C[C@]2(C)C(=O)CC[C@@H]12 | 0.981 | 0.901 |
| C[C@@H]1CC[C@@]2(OC1)O[C@H]1C[C@H]3[C@@H]4CC=C5C[C@@H](O[C@@H]6O[C@H](CO)[C@@H](O[C@@H]7O[C@@H](C)[C@H](O)[C@@H](O)[C@H]7O)[C@H](O)[C@H]6O[C@@H]6O[C@@H](C)[C@H](O)[C@@H](O)[C@H]6O)CC[C@]5(C)[C@H]4CC[C@]3(C)[C@H]1[C@@H]2C | 0.624 | 0.766 |
| COc1cc([C@@H]2c3cc4c(cc3[C@H](O)[C@H]3COC(=O)[C@H]23)OCO4)cc(OC)c1OC | 0.51 | 0.779 |
| CO[C@]12C[C@@H](COC(=O)c3cncc(Br)c3)CN(C)[C@@H]1Cc1cn(C)c3cccc2c13 | 0.775 | 0.963 |
| C[C@]12CCC(=O)C[C@@H]1CC[C@@H]1[C@@H]2CC[C@]2(C)[C@@H](O)CC[C@@H]12 | 0.843 | 0.91 |
| Cc1ccccc1O | 1.17 | 0.951 |
| NNC(=O)c1ccc(N)cc1 | 1.03 | 0.917 |
| CCC1=C[C@H]2CN3CCc4c([nH]c5ccccc45)[C@](C(=O)OC)(C2)[C@H]13 | 1.47 | 0.957 |
| CC[C@H]1CN2CC[C@]3(C(=O)Nc4ccccc43)[C@@H]2C[C@@H]1/C(=C\OC)C(=O)OC | 0.972 | 1.19 |
| CC(=O)O[C@H]1CC[C@@]2(C)C(=CC[C@@H]3[C@@H]2CC[C@]2(C)C(=O)CC[C@@H]32)C1 | 1.17 | 1.09 |

Retrieved one by one from above, two records:

| SMILES | cell viability [1] | cell viability [2] |
| --- | --- | --- |
| COc1cccc(C=O)c1OC | 0.826 | 1.06 |
| COc1cc([C@@H]2c3cc4c(cc3[C@H](O)[C@H]3COC(=O)[C@H]23)OCO4)cc(OC)c1OC | 0.51 | 0.779 |
